{"sequences": {"note": "Amino acid sequences for entries named in this document (tags omitted).", "UniProt P37238": "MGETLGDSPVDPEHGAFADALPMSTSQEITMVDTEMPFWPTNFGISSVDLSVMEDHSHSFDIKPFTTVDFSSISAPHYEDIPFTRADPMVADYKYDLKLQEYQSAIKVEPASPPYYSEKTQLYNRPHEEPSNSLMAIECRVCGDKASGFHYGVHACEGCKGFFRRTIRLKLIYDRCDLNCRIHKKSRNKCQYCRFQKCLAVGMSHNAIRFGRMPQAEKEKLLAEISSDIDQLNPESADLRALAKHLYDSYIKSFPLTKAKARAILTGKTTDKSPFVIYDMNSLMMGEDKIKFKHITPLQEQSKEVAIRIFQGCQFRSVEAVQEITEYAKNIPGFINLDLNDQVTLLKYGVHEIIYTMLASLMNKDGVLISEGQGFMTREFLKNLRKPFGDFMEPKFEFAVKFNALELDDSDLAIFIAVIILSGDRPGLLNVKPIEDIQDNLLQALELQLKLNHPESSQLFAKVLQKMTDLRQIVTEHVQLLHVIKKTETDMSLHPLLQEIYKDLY", "UniProt Q96EB6": "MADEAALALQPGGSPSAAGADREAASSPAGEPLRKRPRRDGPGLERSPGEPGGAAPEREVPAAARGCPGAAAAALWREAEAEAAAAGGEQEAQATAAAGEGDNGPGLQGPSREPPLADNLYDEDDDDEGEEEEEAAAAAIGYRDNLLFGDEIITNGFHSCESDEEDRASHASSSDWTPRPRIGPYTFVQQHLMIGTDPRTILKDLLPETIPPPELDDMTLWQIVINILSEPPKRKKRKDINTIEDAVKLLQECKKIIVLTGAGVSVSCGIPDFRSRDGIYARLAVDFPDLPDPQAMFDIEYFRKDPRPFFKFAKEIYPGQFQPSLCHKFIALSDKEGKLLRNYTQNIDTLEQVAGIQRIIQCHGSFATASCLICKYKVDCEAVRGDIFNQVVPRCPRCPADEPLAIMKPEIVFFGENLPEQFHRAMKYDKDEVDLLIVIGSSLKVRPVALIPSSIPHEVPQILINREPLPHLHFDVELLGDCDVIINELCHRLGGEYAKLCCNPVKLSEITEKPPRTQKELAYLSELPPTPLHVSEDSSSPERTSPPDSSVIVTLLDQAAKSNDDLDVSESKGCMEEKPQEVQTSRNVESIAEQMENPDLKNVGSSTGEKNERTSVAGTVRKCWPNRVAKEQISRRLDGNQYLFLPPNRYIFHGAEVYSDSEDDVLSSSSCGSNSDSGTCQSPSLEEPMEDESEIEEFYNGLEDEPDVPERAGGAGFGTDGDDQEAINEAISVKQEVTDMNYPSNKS", "UniProt P37231": "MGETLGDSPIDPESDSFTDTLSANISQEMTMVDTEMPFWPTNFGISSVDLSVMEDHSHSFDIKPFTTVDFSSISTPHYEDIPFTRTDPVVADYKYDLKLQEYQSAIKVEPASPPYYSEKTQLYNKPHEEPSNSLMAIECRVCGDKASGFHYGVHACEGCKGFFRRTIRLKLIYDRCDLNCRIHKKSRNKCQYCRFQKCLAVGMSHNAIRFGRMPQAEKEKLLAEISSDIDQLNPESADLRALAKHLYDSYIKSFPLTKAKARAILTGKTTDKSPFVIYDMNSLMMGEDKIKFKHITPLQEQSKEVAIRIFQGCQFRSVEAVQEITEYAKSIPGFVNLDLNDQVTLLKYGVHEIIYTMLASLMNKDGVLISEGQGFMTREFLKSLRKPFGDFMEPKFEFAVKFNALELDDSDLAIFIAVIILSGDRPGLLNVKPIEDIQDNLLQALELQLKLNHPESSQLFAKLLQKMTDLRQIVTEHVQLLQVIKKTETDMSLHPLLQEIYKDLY"}, "source": "paper PMC5870580", "molecules": {"B1": {"name": "endogenous CACUL1 of 3T3-L1 preadipocytes (protein, UniProt Q8R0X2 1-377)", "chain": "MEESMEEEEMLTYEAMMDDQNHNNWEAAADSFRQPPPAPPLPPPPPPRPSSSIPDPGRELPGGQLLAVHAGSMERKGPKEGLPMGPPPLPEPNGVIMMLKSCDAAAAVAKTAPAPTSSSTININTSTSKFLMNVITIEDYKSTYWPKLDGAIDQLLTQSPGDYIPISYEQIYSCVYKCVCQQHSEQMYSDLIKKITSHLERVSKELQASPPDLYIERFNIALGQYMGALQSIVPLFIYMNKFYIETKLNRDLKDDLIKLFTEHVAEKHIYSLMPLLLEAQSTPFQVTPSTMANIVKGLYTLRPEWVQMAPTLFSKFIPNILPPAVESELSEYAAQDQKLQRELIQNGFTRGDQSRKRAGDELAYNSPSACASSRGYR"}, "B2": {"name": "FLAG-CACUL1 (protein, UniProt Q86Y37 1-369)", "chain": "MEESMEEEEGGSYEAMMDDQNHNNWEAAVDGFRQPLPPPPPPSSIPAPAREPPGGQLLAVPAVSVDRKGPKEGLPMGPQPPPEANGVIMMLKSCDAAAAVAKAAPAPTASSTININTSTSKFLMNVITIEDYKSTYWPKLDGAIDQLLTQSPGDYIPISYEQIYSCVYKCVCQQHSEQMYSDLIKKITNHLERVSKELQASPPDLYIERFNIALGQYMGALQSIVPLFIYMNKFYIETKLNRDLKDDLIKLFTEHVAEKHIYSLMPLLLEAQSTPFQVTPSTMANIVKGLYTLRPEWVQMAPTLFSKFIPNILPPAVESELSEYAAQDQKFQRELIQNGFTRGDQSRKRAGDELAYNSSSACASSRGYR"}, "B3": {"name": "GFP-CACUL1 (protein, UniProt Q86Y37 1-369)", "chain": "B2 chain"}}, "key": {"GST-CACUL1 (human)": {"biological_target": "T1, GST-CACUL1 (human) (UniProt Q86Y37)", "T1 sequence": "B2 chain", "assay": "pull-down; GST-CACUL1 on glutathione Sepharose beads incubated with in vitro translated Myc-PPARγ in the presence of the PPARγ agonist rosiglitazone; western blot with anti-Myc; only the target purified"}, "[1]": {"biological_target": "endogenous PPARγ of 3T3-L1 preadipocytes (mouse (endogenous in 3T3-L1)) (UniProt P37238)", "assay": "co-IP; endogenous proteins of 3T3-L1 preadipocytes; IP with anti-PPARγ antibody, western blot with anti-SIRT1 or anti-CACUL1"}, "Myc-SIRT1": {"biological_target": "Myc-SIRT1 (UniProt Q96EB6)", "assay": "co-IP; HEK293 cells co-transfected with tagged constructs; lysates incubated overnight at 4 °C with the antibody against the tag (1:200), protein A/G agarose beads, western blot; for GFP-CACUL1 and Myc-PPARγ with and without rosiglitazone"}, "Myc-PPARγ": {"biological_target": "Myc-PPARγ (UniProt P37231)", "assay": "co-IP; HEK293 cells co-transfected with tagged constructs; lysates incubated overnight at 4 °C with the antibody against the tag (1:200), protein A/G agarose beads, western blot; for GFP-CACUL1 and Myc-PPARγ with and without rosiglitazone"}}, "note": "No constants are given. Whether binding was seen depends on the method and setting. In cells and extracts the contact can be indirect. Some entries that bind do so weakly or less than the wild type. For some of these results: Sequences can lack the tags named with a protein.", "data": [{"molecule": "in vitro translated Myc-PPARγ (from UniProt P37231 1-505)", "values": [{"measurement": "binding", "setting": "GST-CACUL1 (human)", "result": "binds"}]}, {"molecule": "B1", "values": [{"measurement": "binding", "setting": "[1]", "result": "binds"}]}, {"molecule": "B2", "values": [{"measurement": "binding", "setting": "Myc-SIRT1", "result": "binds"}]}, {"molecule": "B3", "values": [{"measurement": "binding", "setting": "Myc-PPARγ", "result": "binds"}]}]}
